According to PubChem BioAssay AID504467 (National Center for Advancing Translational Sciences (NCATS), 2011):
The campaign covered roughly 330,000 compounds. About 7,700 (2.3%) were called active. This list was built around the results that the source calls inconclusive (neither active nor inactive); the mix of calls is not that of the screen. Calls come from the whole dose curve; as a rule, active = well fitted inhibition curve with a large enough effect; inconclusive = small, poorly fitted or top-dose-only effect, or effect the other way; inactive = flat fitted curve, though single readings scatter. Potencies of inconclusive entries are doubtful fits and often do not repeat.

Assay: qHTS screen for small molecules that inhibit ELG1-dependent DNA repair in human embryonic kidney (HEK293T) cells expressing luciferase-tagged ELG1; note: nearly all actives have a fitted effect of over 55% in size
Conditions: HEK293T ELG1-luciferase reporter, luminescence, 16 h, DNA damage induced by 5-fluorouridine; series mostly up to 46.1 µM
Summary of the method: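 5-Fluorouridine DNA damage + compound/DMSO, 2,000 cells/well, 16 h, 37 °C/5% CO2. ONE-Glo, 30 min RT, luminescence. Readout = decrease in reporter signal.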
Potency is the fitted concentration of half-maximal effect.

Compound | Potency
CCOC(=O)c1cnn2c(C(F)(F)F)cc(-c3ccccc3)nc12 | inconclusive: 23.1 µM [inhibitor, single point]
Nc1ccc(-c2nc3ccccc3[nH]2)cc1 | inconclusive: 4.61 µM [activator, partial curve]
Cc1ccc(S(=O)(=O)NCCS(=O)(=O)N2CCN(c3ccccc3)CC2)cc1 | inconclusive: 29.1 µM [inhibitor, single point]
Cc1ccc(S(=O)(=O)CCNC(=O)Cc2ccc(Cl)cc2)cc1 | inactive
Cc1nc(NC(=O)CSc2ccc(-c3nc4ccccc4[nH]3)cn2)sc1C | inconclusive: 29.1 µM [activator, single point]
Nc1ccc(Sc2nc3ccccc3[nH]2)cc1 | inconclusive: 20.6 µM [inhibitor, partial curve, poor fit]
CCCCCc1nnc(NC(=O)C2COc3ccccc3O2)s1 (configuration not stated) | inconclusive: 23.1 µM [activator, single point]
CC(C)c1nnc(NC(=O)CCS(=O)(=O)c2ccccc2)s1 | inconclusive: 29.1 µM [inhibitor, single point]
CCc1nn(CC(=O)NCCCN(CC)c2cccc(C)c2)c(=O)c2cc3occc3n12 | inconclusive: 20.6 µM [inhibitor, partial curve]
COc1ccc(-c2nnc(SCc3nc4ccccc4s3)n2C(C)C)cc1 | inconclusive: 3.26 µM [activator, partial curve, poor fit]
Cc1ccc(CNC(=O)c2cc3c(=O)n4ccccc4nc3n(Cc3ccco3)c2=N)cc1 | inactive
O=C(c1n[nH]c(=O)c2ccccc12)N1CCN(c2ccc(F)cc2)CC1 | inconclusive: 25.9 µM [inhibitor, single point]
CCCn1c(N2CCN(Cc3cccc(C)c3)CC2)nc2c1c(=O)[nH]c(=O)n2C | inconclusive: 20.6 µM [inhibitor, partial curve, poor fit]
COc1cccc(C(=O)O/N=C(\N)c2ccc(C)cc2)c1 | inconclusive: 16.4 µM [activator, partial curve]
O=C(Cc1ccc(NS(=O)(=O)c2ccc(Cl)c(Cl)c2)cc1)NCCN1CCOCC1 | inconclusive: 29.1 µM [activator, single point]
CCc1ccc(O)c(CNCCNCc2cc(CC)ccc2O)c1 | inconclusive: 25.1 µM [inhibitor, single point]
O=C(Nc1ccc(F)cc1)Nc1nnc(-c2ccco2)s1 | inconclusive: 2.06 µM [activator, full curve]
O=c1c2ccccc2nc(COc2ccccc2)n1/N=C/c1ccc(O)c(O)c1 | inconclusive: 29.1 µM [inhibitor, single point]
Cc1ccc(N(C)C(=O)c2cc(S(=O)(=O)N3CCCC3)cn2C)cc1 | inconclusive: 29.1 µM [inhibitor, single point]
COc1ccc(C2=NOC(C(=O)Nc3ccc(C(C)=O)cc3)C2)cc1OC (configuration not stated) | inconclusive: 10.3 µM [activator, partial curve]
CN(C)c1ccc(C(c2nnnn2C(C)(C)C)N2CCN(C(=O)c3ccco3)CC2)cc1 (configuration not stated) | inactive
O=C(c1ccco1)N1CCN(C(=O)c2ccc(-c3ccc(Cl)cc3)o2)CC1 | inconclusive: 25.9 µM [inhibitor, single point]
OC(CNCc1ccco1)COc1ccccc1 (configuration not stated) | inactive

In another format: entries from further up

| Compound | Potency |
| --- | --- |
| Cc1ccc(S(=O)(=O)CCNC(=O)Cc2ccc(Cl)cc2)cc1 | inactive |
| Cc1nc(NC(=O)CSc2ccc(-c3nc4ccccc4[nH]3)cn2)sc1C | inconclusive: 29.1 µM [activator, single point] |

Further entries:

Compound | Potency
Nc1nc(-c2ccccc2)c(N=Nc2cccc3ccccc23)s1 | inactive
Nc1ccc(C(=O)N2CCN(S(=O)(=O)c3ccc4c(c3)OCCCO4)CC2)cc1[N+](=O)[O-] | inconclusive: 25.9 µM [inhibitor, single point]
O=C(O)/C=C/c1ccc([N+](=O)[O-])o1 | inconclusive: 11.6 µM [activator, partial curve, poor fit]
O=C(CSC1=NC2(CCCCC2)N=C1c1ccccc1)Nc1ccc2c(c1)OCCO2 | inconclusive: 25.9 µM [inhibitor, single point]
Cc1nnc(SCc2ccccc2)n(N)c1=O | inconclusive: 14.6 µM [activator, partial curve, poor fit]
CSc1ccccc1C(=O)NCCSC(C)(C)C | inconclusive: 29.1 µM [activator, partial curve, poor fit]
CCN(CC)C(=O)CSc1nnc(-c2ccco2)o1 | inconclusive: 16.4 µM [activator, partial curve]
COc1cc(Cl)cc(C2NC(=S)NC(c3ccccc3)=C2C(C)=O)c1OCC(=O)O (configuration not stated) | inactive
COc1ccccc1-c1nc(-c2ccncc2)no1 | inconclusive: 5.8 µM [activator, partial curve]
Cn1nnnc1Sc1ncnc2scc(-c3ccc(F)cc3)c12 | inactive
CCc1ccc(NC(=O)C(=O)NNC(=O)c2cccs2)cc1 | inconclusive: 20.6 µM [activator, single point]
COc1ccc(CNCCc2ccccc2)cc1OCC(N)=O | inactive
O=C(Nc1cc2c3c(c1)CC(=O)N3CCC2)c1ccccc1F | inconclusive: 6.51 µM [activator, single point]
COc1ccc(OCc2cccc(C(=O)NN)c2)cc1 | inconclusive: 0.461 µM [activator, full curve]
COc1ccc(OCC(O)CN(CC(O)COc2ccc(OC)cc2)c2cccc(O)c2)cc1 (configuration not stated) | inconclusive: 29.1 µM [inhibitor, partial curve, poor fit]
Cc1ccsc1C(=O)OCc1nc2ccccc2c(=O)[nH]1 | inconclusive: 20.6 µM [activator, partial curve]
COc1ccc(-n2nc(C(=O)NCC(=O)N3CCOCC3)c3ccccc3c2=O)cc1Cl | inactive
C=CCN=C1N[C@@H](c2cccc(C(F)(F)F)c2)C(C(=O)OC)=C(C)N1CC | inactive
CCCc1ccc2oc(C(=O)N3CCNC(=O)C3CC(=O)OC)c(C)c2c1 (configuration not stated) | inconclusive: 8.2 µM [activator, partial curve, poor fit]
O=C(O)CC/C(=N/NC(=O)c1cccs1)c1ccccc1 | inconclusive: 20.6 µM [activator, single point]
COC(=O)C1=C(C)NC(=S)NC1/C=C/c1ccccc1 (configuration not stated) | inconclusive: 25.9 µM [inhibitor, single point]
O=C(NCC1COc2ccccc2O1)c1ccc(Cl)c(S(=O)(=O)N2CCCC2)c1 (configuration not stated) | inconclusive: 25.9 µM [inhibitor, single point]
O=C(CSc1nnnn1Cc1ccccc1)c1ccccc1 | inconclusive: 20.6 µM [activator, partial curve]

Sorted by heavy-atom count (ascending): some entries from above
Compound | Potency
COc1ccc(CNCCc2ccccc2)cc1OCC(N)=O | inactive
Nc1nc(-c2ccccc2)c(N=Nc2cccc3ccccc23)s1 | inactive
O=C(NCC1COc2ccccc2O1)c1ccc(Cl)c(S(=O)(=O)N2CCCC2)c1 (configuration not stated) | inconclusive: 25.9 µM [inhibitor, single point]

(further entries)

Compound | Potency
CC(C(=O)NCCc1ccccc1)N1c2cccc3cccc(c23)S1(=O)=O (configuration not stated) | inconclusive: 16.4 µM [inhibitor, partial curve]
O=C(CCc1cccc(Cl)c1)NC1CCCN(Cc2ccccc2F)C1 (configuration not stated) | inactive
COc1ccc(NC(=O)c2ccc3c(c2)N(C)CCS3)cc1 | inconclusive: 2.59 µM [activator, full curve]
CC(=O)CCc1oc2ccc(NC(C)=O)cc2c1-c1ccc(C)o1 | inconclusive: 29.1 µM [inhibitor, single point]
Nc1nc2ccc(NC(=O)c3ccco3)cc2s1 | inconclusive: 23.1 µM [activator, partial curve]
Cc1ccc2c(c1)C1CN(C)CCC1N2C(=O)COc1ccc(N(C)C(=O)C(C)(C)C)cc1 (configuration not stated) | inactive
Nc1c(C(=O)Nc2ccc3c(c2)OCCO3)nnn1Cc1cccc(F)c1 | inconclusive: 2.59 µM [activator, full curve]
Cc1n[nH]c(C)c1NC(=O)CSc1nnnn1-c1cccc(F)c1 | inconclusive: 7.3 µM [activator, partial curve, poor fit]
CCOc1ccc(/C=N/NC(=O)c2ccccc2Cl)cc1CN1CC2CC(C1)c1cccc(=O)n1C2 (configuration not stated) | inconclusive: 29.1 µM [inhibitor, single point]
c1ccc(CNc2c3ccccc3nc3ccccc23)cc1 | inconclusive: 32.6 µM [inhibitor, single point]
O=C(Nc1ccc(N2CCN(C(=O)c3ccccc3)CC2)c(Cl)c1)c1cccnc1 | active: 8.2 µM
CCOC(=O)c1ccc(N=NN(C)C)cc1 | inconclusive: 23.1 µM [activator, partial curve]
C[C@@H](NC(=O)[C@@H]1Cc2ccccc2CN1C(=O)OC(C)(C)C)C(=O)NC1CCCCC1 | inactive
N#Cc1cc2cc3c(cc2nc1SCC(=O)N1CCOCC1)OCO3 | inconclusive: 7.3 µM [activator, partial curve]
O=C(O)C1C2C=CC(O2)C1C(=O)Nc1ccc2c(c1)OCCO2 (configuration not stated) | inconclusive: 16.4 µM [activator, partial curve]
CC(C)Oc1ccc(C(=O)OCC(=O)NC(=O)NC2CCCC2)cc1 | inactive
Cc1ccc2c(CN3CCN(S(=O)(=O)c4ccccc4C(F)(F)F)CC3)cc(=O)oc2c1 | active: 17.8 µM
O=C(CSc1ccc(-c2ccccn2)nn1)NCc1ccc(Cl)cc1 | inconclusive: 23.1 µM [inhibitor, single point]
COC(=O)C1=C(O)/C(=C\c2ccc(CNS(=O)(=O)c3ccccc3)o2)N=C1C | inactive
Cc1ccc(S(=O)(=O)N2CCN(C(=O)c3cc4c(C)nn(-c5ccccc5C)c4s3)CC2)cc1 | inconclusive: 20.6 µM [inhibitor, single point]
CCOc1ccc(S(=O)(=O)Nc2cc(SCC(=O)O)c(O)c3ccccc23)cc1 | inconclusive: 20.6 µM [inhibitor, single point]
